The whole screen tested about 350,000 compounds, of which about 6,000 (1.7%) were called active. The shares of active, inactive and inconclusive entries below differ from those in the screen. Rule as the data show it: active = CPE inhibition above about 20% (passing the limit was not always enough); inconclusive = no clear call, values can overlap the other calls; tested in BHK-21 cells.
experiment: protection of cells from dengue 2 killing – plate reader, single concentration, primary screen (AID 651640); conditions: DENV2-infected cells, cytopathic effect rescue, at 9.99 µM, active compounds read high;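 also: 0% = median of neutral control wells and 100% = median of positive control wells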

Row | SMILES | CPE inhibition
1 | COCCCNC(=O)CN(CCc1ccccc1)S(=O)(=O)c1ccc(OC)cc1 | inconclusive: 23.8%
2 | C[C@H]1CN([C@@H](C)CO)C(=O)c2cccc(NC(=O)NC3CCCCC3)c2O[C@H]1CN(C)CC1CCCCC1 | active: 30.3%
3 | COc1ccc(S(=O)(=O)Nc2cccc3c2O[C@H](CN(C)S(=O)(=O)c2ccc(C)cc2)[C@@H](C)CN([C@@H](C)CO)C3=O)cc1 | inconclusive: 42.3%
4 | CCCc1cc(=O)[nH]c2nnc(SCC(=O)N3CC(C)OC(C)C3)n12 (stereo unspecified) | inconclusive: 20%
5 | COc1cccc(CC(NC(C)=O)C(=O)NC2CCN(C(=O)NCc3ccccc3)CC2)c1 (stereo unspecified) | inconclusive: 28.7%
6 | COc1ccc(CN2C(=O)[C@@H]3Cc4c([nH]c5ccccc45)C(C)(C)N3C2=O)cc1 | inconclusive: 25.6%
7 | O=C(NNC(=O)c1cc(-c2ccncc2)nc2ccccc12)c1ccccc1F | inconclusive: 59.5%
8 | CN(C)c1ccc(-c2cc3ccccc3c(=O)o2)cc1 | active: 114%
9 | Cc1noc(C)c1S(=O)(=O)Nc1ccc2c(c1)C(=O)N([C@@H](C)CO)C[C@H](C)[C@@H](CN(C)C)OCCCC[C@H](C)O2 | inconclusive: 32.7%
10 | Cc1noc(C)c1S(=O)(=O)Nc1ccc2c(c1)C(=O)N([C@H](C)CO)C[C@H](C)[C@@H](CN(C)C(=O)NC(C)C)OCCCC[C@H](C)O2 | active: 24.3%
11 | C[C@@H]1CCCCO[C@@H](CN(C)C(=O)Nc2ccc3c(c2)OCO3)[C@@H](C)CN([C@H](C)CO)C(=O)c2cc(NC(=O)Nc3ccc4c(c3)OCO4)ccc2O1 | inactive: -3.57%
12 | O=C1CN(Cc2ccccc2)C[C@@H]2[C@H](c3ccc(-c4ccccc4F)cc3)[C@@H](CO)N12 | inconclusive: 22.1%
13 | CCCC(=O)Nc1ccc2c(c1)C(=O)N(C)C[C@H](OC)[C@@H](C)CN(C(=O)C1CCCC1)[C@@H](C)CO2 | inactive: -3.06%
14 | CC(C)NC(=O)N1CCCCN2[C@H](CO)[C@H](c3ccc(C#CC4CC4)cc3)[C@H]2C1 | active: 66.2%
15 | CC(C)c1ccc(NC(=O)C(c2ccccc2)N2CCOCC2)cc1 (stereo unspecified) | inconclusive: 20.8%
16 | C[C@@H]1CN([C@@H](C)CO)C(=O)c2cc(NS(=O)(=O)c3cn(C)cn3)ccc2O[C@H]1CN(C)Cc1ccc(C(=O)Nc2ccccc2N)cc1 | inactive: -10.9%
17 | C=CCCC1CN(Cc2ccc(OC)cc2)S(=O)(=O)c2c(Oc3ccc(OC)cc3)cccc2O1 (stereo unspecified) | inconclusive: 73.1%
18 | N=C1/C(=C\c2ccc(OC(=O)c3ccc(F)cc3)cc2)C(=O)N=C2SC(N3CCOCC3)=NN12 | inconclusive: 30.2%
19 | CCc1ccccc1NC(=O)CNC(=O)CCNC(=O)Nc1ccccc1 | inconclusive: 34%
20 | CCC(=O)N(C)C[C@H]1Oc2cc(C#CC3CC3)ccc2S(=O)(=O)N([C@@H](C)CO)C[C@@H]1C | inconclusive: 55%
21 | COc1ccc(-n2nc3c(c2NC(=O)Cc2cccc(C)c2)CS(=O)C3)cc1 (stereo unspecified) | active: 99.5%
22 | O=C1CCc2cc(S(=O)(=O)Nc3ccccc3Cl)ccc2N1 | inconclusive: 20.2%
23 | N#Cc1cnn(-c2cc(Cl)ccc2Cl)c1N | inconclusive: 26.5%
24 | O=C(Nc1ccc(S(=O)(=O)Nc2nccs2)cc1)c1c(F)c(F)c(F)c(F)c1F | inconclusive: 44.4%

Structures from the list above that contain fluorine, in the order listed:
Row | SMILES | CPE inhibition
7 | O=C(NNC(=O)c1cc(-c2ccncc2)nc2ccccc12)c1ccccc1F | inconclusive: 59.5%
12 | O=C1CN(Cc2ccccc2)C[C@@H]2[C@H](c3ccc(-c4ccccc4F)cc3)[C@@H](CO)N12 | inconclusive: 22.1%
18 | N=C1/C(=C\c2ccc(OC(=O)c3ccc(F)cc3)cc2)C(=O)N=C2SC(N3CCOCC3)=NN12 | inconclusive: 30.2%
24 | O=C(Nc1ccc(S(=O)(=O)Nc2nccs2)cc1)c1c(F)c(F)c(F)c(F)c1F | inconclusive: 44.4%

(next part)

Row | SMILES | CPE inhibition
25 | Cc1ccc2cc(CN(Cc3ccc(F)cc3)Cc3nnnn3C3CCCC3)c(=O)[nH]c2c1 | inactive: 1.11%
26 | Cc1ccc(N=C2C(=O)Nc3ccc(Br)cc32)cc1 | inactive: 0.512%
27 | C[C@H](c1ccccc1)N1C[C@@H](COCc2ccccc2)Oc2cccc(Oc3ccc(C(C)(C)C)cc3)c2S1(=O)=O | active: 85%
28 | CC1(Cc2ccc(C(F)(F)F)o2)C(=O)Nc2cc(-c3ccc(F)cc3F)ccc21 (stereo unspecified) | inconclusive: 38%
29 | O=c1[nH]cnc2c1c(-c1ccccc1)cn2-c1cccc(Cl)c1 | inactive: -4.06%
30 | CC=Cc1ccc2n(c1=O)C[C@@H]1[C@@H](CO)[C@H](C(=O)NCC)[C@H]2N1C(=O)c1ccccc1 (mixture of isomers) | inactive: -1.45%
31 | Cc1ccc(-n2c(C)nn(CC#N)c2=O)cc1 | inconclusive: 22.8%
32 | CCCCCC1CC(CC(=O)Nc2ccc([N+](=O)[O-])cc2)C(=O)O1 (stereo unspecified) | inactive: 5.76%
33 | O=C(CCC(=O)N1CCN(c2ccccc2F)CC1)N1CCN(c2ccc(F)cc2)CC1 | inactive: -7.42%
34 | CCOc1ccccc1NC(=O)COC(=O)Cc1ccc(-c2ccccc2)cc1 | inconclusive: 28.3%
35 | C[C@@H]1CN([C@H](C)CO)S(=O)(=O)c2ccc(-c3ccccc3)cc2O[C@@H]1CN(C)C(=O)c1ccc2c(c1)OCO2 | inactive: 1.76%
36 | CC(C)C#Cc1cnc2c(c1)C(=O)N([C@@H](C)CO)C[C@@H](C)[C@H](CN(C)C(=O)CCN1CCCCC1)O2 | inconclusive: 46.1%
37 | CCCCn1c(N)c(N(CCOC)C(=O)c2cc(C)oc2C)c(=O)[nH]c1=O | inconclusive: 28.3%
38 | CC(C)CC1NC(=O)c2cc(Cl)ccc2-n2c1nc1ccc(F)cc1c2=O (stereo unspecified) | inconclusive: 53.3%
39 | COc1ccc(/C=C2\SC(=O)N(CCCC(=O)Nc3ccc(C(=O)O)cc3)C2=O)cc1 | active: 96.5%
40 | CC(=O)N(C)C[C@H]1Oc2ncc(C#CC(C)(C)O)cc2C(=O)N([C@@H](C)CO)C[C@@H]1C | active: 30.1%
41 | CCOc1ncccc1C(=O)OCC(=O)NCc1ccc(C(=O)OC)cc1 | active: 67.3%
42 | Cc1cc(C)cc(CC(CC(=O)Nc2ccc(Cl)cc2)C(=O)O)c1 (stereo unspecified) | inconclusive: 20.8%
43 | C[C@@H]1CN([C@H](C)CO)S(=O)(=O)c2ccc(Br)cc2O[C@H]1CN(C)C(=O)C1CC1 | inconclusive: 54.7%
44 | CCOC(=O)N1CCN(C(=O)c2cc3ccc(OC)cc3[nH]2)CC1 | inconclusive: 21.4%
45 | C[C@H](NC(=O)[C@@H]1[C@@H](CO)[C@@H]2Cn3c(ccc(-c4cccnc4)c3=O)[C@H]1N2C)c1ccccc1 | inactive: 3.94%
46 | COCCC(=O)N1CCC(Oc2ccc(C(=O)N3CCCCCCC3)cc2)CC1 | inconclusive: 55.2%
47 | COc1ccc(C#Cc2ccc3c(c2)O[C@@H](CN(C)C)[C@H](C)CN([C@H](C)CO)S3(=O)=O)cc1 | inconclusive: 19.1%
48 | C[C@H](CO)N1C[C@H](C)[C@@H](CN(C)S(=O)(=O)c2cccs2)OCc2cn(nn2)CCCC1=O | inconclusive: 26%

Row | SMILES | CPE inhibition
49 | COCC#Cc1cnc2c(c1)C(=O)N([C@@H](C)CO)C[C@H](C)[C@H](CN(C)C(C)=O)O2 | inconclusive: 22.7%
50 | C[C@@H]1CN([C@H](C)CO)C(=O)c2cc(NC(=O)Nc3cccc4ccccc34)ccc2O[C@@H](C)CCCCO[C@@H]1CN(C)Cc1ccc(C(F)(F)F)cc1 | active: 72.3%
51 | O=C(C1CCCC1)N1CC(=O)N2[C@@H](CO)[C@@H](c3ccc(C#CC4CCCC4)cc3)[C@@H]2C1 | inactive: 2.26%
52 | CN(C)CCCNC(=O)C(=O)NCC1OCCN1S(=O)(=O)c1cccs1 (stereo unspecified) | inconclusive: 67.3%
53 | O=C(c1ccc2c(c1)OCO2)N1CCCCN2[C@H](C1)[C@H](c1ccc(-c3ccccc3)cc1)[C@@H]2CO | inactive: -1.78%
54 | CCCCCCCC/C=C\CCCCCCCC(=O)NCCO | inconclusive: 59.7%
55 | CCOC(=O)C1CCN(C(=O)c2ccc3c(=O)n4nc(Nc5ccccc5OC)sc4nc3c2)CC1 | inconclusive: 33.3%
56 | Cc1nc(-c2cccc(NC(=O)c3ccc(-n4cccn4)cc3)c2)cs1 | inconclusive: 22.3%
57 | C[C@H]1CN([C@@H](C)CO)C(=O)c2cc(NS(=O)(=O)c3ccc(F)cc3)ccc2O[C@H]1CN(C)C(=O)Nc1ccccc1 | active: 27.3%
58 | Cc1ccccc1CNC(=O)CN(c1ccccc1Cl)S(C)(=O)=O | inconclusive: 32.3%
59 | COc1ccccc1CN1[C@@H](CC(C)=O)c2cc(C(F)(F)F)ccc2S1(=O)=O | active: 71.3%
60 | Cc1nn(CC(=O)N2CCCC2)c(=O)c2nn(-c3ccccc3)c(C)c12 | inconclusive: 29.7%
61 | COc1ccc(CN(C)C[C@@H]2OCCCC[C@H](C)Oc3ccc(NS(=O)(=O)c4ccccc4)cc3C(=O)N([C@H](C)CO)C[C@@H]2C)cc1 | inconclusive: 23.3%
62 | O=S(=O)(c1ccc(F)cc1)N1CCCCN2[C@@H](CO)[C@@H](c3ccc(C#CC4CCCC4)cc3)[C@@H]2C1 | inactive: -2.29%
63 | CCC(=O)N(C)C[C@@H]1Oc2cc(-c3cncnc3)ccc2S(=O)(=O)N([C@@H](C)CO)C[C@H]1C | inactive: -1.71%
64 | C[C@H](CO)N1C[C@H](C)[C@@H](CN(C)C(=O)c2ccccc2)OCCCC[C@H](C)Oc2ccc(NC(=O)C3CCCCC3)cc2C1=O | active: 33.6%
65 | CCC(=O)N1[C@@H](CO)[C@@H]2c3ccccc3N(C(=O)c3ccccc3F)C[C@@H]21 | active: 26.9%
66 | COc1cc2c3nnc(-c4ccc(F)cc4)c-3cn(Cc3ccccc3F)c2cc1OC | inactive: 11.6%
67 | CCC(=O)N1C[C@H](O)COC[C@H]2O[C@@H](CC(=O)NCc3ccc(Oc4ccccc4)cc3)CC[C@@H]21 | active: 91.5%
68 | CCN(C(=O)c1ccco1)C1C2CC3CC(C2)CC1C3 (stereo unspecified) | inconclusive: 36.6%
69 | O=C1OC[C@@H]2CCCN2C(=O)[C@@H](CC(=O)N(CCO)Cc2ccccc2)C/C=C\CC[C@H]1Cc1ccc(F)cc1 | inconclusive: 20.4%
70 | CCc1cc2cc(C)c(C)cc2nc1SCC(=O)NNC(=O)c1ccco1 | inconclusive: 30.5%
71 | CN(C)C(=O)c1ccc(-c2ccc3c(c2)[C@@H]2[C@@H](CCN2C(=O)c2cnccn2)[C@@H](CO)N3)cc1 | inconclusive: 54.2%

Part of the list above, set out differently.
Row	SMILES	CPE inhibition
63	CCC(=O)N(C)C[C@@H]1Oc2cc(-c3cncnc3)ccc2S(=O)(=O)N([C@@H](C)CO)C[C@H]1C	inactive: -1.71%
64	C[C@H](CO)N1C[C@H](C)[C@@H](CN(C)C(=O)c2ccccc2)OCCCC[C@H](C)Oc2ccc(NC(=O)C3CCCCC3)cc2C1=O	active: 33.6%
